Assay results taken from article PMC3628841.
Results are given in words; binding and its absence hold for the method and conditions named. Binding seen in cells or lysates may run through a third protein. Some results given as binding are weak or reduced against the parent protein; the word gives no strength. One block for each molecule: values may come before it.

Protein sequences, listed by entry. Tags and fused reporters are not part of them. Residues count along the entry.
UniProt P08138, residues 29-427: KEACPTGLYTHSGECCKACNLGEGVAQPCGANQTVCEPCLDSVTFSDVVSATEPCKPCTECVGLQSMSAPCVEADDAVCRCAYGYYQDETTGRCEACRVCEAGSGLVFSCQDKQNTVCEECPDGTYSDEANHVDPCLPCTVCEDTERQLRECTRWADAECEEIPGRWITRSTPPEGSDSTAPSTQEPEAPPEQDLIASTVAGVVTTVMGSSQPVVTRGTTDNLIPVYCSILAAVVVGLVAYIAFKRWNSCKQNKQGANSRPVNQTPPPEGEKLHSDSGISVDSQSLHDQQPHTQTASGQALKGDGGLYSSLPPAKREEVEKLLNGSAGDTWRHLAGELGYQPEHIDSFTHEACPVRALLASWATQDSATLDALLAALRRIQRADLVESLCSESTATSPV
UniProt P07174, residues 30-425: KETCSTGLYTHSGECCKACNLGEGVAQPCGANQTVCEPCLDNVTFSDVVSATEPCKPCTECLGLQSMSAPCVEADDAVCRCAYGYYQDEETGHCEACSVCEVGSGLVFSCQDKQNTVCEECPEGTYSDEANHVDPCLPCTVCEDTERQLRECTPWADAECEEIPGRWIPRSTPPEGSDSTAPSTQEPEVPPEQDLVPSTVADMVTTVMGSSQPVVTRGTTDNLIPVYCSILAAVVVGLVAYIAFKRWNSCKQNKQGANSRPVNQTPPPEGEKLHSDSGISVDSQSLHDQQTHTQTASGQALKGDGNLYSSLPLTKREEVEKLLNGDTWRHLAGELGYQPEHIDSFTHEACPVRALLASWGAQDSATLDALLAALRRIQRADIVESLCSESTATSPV

How the values were obtained:
Test in all cases: co-IP; endogenous proteins from adult rat and human brain lysates; Protein G Dynabeads coated with goat anti-AMIGO3, rabbit anti-NgR1 or mouse anti-NGFR (p75); 30 min at room temperature; western blot for AMIGO3, p75 and NgR1; IgG as control antibody
[1] = target: T1, endogenous human NgR1 (human (endogenous in brain)) (UniProt Q9BZR6)
T1 sequence: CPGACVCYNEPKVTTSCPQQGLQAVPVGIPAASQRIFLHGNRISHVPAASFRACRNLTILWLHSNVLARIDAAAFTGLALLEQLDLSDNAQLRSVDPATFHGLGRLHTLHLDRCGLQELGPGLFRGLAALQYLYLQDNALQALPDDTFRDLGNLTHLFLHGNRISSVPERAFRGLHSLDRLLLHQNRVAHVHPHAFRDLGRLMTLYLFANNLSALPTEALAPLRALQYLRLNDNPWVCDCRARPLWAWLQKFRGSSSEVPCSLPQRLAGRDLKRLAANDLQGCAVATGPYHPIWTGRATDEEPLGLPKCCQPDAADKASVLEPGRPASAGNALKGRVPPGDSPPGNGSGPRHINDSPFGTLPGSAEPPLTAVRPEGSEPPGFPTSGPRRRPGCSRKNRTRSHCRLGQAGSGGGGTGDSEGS

[2] = target: T2, endogenous human AMIGO3 (human (endogenous in brain)) (UniProt Q86WK7)
T2 sequence: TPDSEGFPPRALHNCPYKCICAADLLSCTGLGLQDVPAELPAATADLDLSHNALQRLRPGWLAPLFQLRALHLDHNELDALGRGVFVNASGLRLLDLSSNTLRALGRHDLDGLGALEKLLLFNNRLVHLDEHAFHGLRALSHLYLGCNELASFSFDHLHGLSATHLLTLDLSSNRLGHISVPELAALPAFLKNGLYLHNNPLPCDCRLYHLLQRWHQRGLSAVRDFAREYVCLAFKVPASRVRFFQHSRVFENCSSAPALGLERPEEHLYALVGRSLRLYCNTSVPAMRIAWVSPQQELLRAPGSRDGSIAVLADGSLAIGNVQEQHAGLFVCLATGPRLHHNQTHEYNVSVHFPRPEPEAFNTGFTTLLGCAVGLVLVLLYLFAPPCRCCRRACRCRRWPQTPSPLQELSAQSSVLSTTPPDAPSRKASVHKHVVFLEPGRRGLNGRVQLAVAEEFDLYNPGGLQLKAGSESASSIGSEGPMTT

[3] = target: T3, endogenous rat NgR1 (rat (endogenous in brain)) (UniProt Q99M75)
T3 sequence: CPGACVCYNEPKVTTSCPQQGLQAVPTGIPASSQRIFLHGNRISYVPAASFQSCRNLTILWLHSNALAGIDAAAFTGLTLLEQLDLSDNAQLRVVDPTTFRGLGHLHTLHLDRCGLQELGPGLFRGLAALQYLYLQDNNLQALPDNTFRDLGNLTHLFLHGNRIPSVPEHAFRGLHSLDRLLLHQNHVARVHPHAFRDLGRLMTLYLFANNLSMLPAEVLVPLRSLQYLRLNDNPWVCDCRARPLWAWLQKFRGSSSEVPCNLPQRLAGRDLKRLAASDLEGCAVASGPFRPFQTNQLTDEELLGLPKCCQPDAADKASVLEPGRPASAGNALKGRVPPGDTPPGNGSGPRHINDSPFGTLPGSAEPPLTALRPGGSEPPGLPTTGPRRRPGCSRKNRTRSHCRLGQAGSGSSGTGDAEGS

[4] = target: T4, endogenous rat AMIGO3 (rat (endogenous in brain)) (UniProt Q80ZD5)
T4 sequence: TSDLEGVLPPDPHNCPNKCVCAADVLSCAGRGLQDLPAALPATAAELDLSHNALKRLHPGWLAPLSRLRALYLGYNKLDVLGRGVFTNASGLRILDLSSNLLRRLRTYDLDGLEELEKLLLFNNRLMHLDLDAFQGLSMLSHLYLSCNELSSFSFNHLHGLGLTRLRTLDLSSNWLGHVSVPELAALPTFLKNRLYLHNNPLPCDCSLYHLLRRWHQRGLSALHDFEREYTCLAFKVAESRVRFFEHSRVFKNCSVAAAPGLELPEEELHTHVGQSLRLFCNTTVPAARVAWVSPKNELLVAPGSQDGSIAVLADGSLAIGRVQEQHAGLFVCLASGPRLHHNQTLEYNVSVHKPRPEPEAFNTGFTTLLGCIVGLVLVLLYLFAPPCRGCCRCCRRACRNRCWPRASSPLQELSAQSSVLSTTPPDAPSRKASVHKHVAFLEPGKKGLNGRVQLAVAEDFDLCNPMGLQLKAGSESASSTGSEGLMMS

binding [1]: binds
binding [2]: binds
Molecule: endogenous human p75 (from UniProt P08138 29-427) (receptor)

binding [3]: binds
binding [4]: binds
Molecule: endogenous rat p75 (from UniProt P07174 30-425) (receptor)

binding [2]: binds
B1: endogenous human NgR1 (receptor, UniProt Q9BZR6 27-447)
chain: T1 sequence

binding [4]: binds
B2: endogenous rat NgR1 (receptor, UniProt Q99M75 27-447)
chain: T3 sequence
